# Reference: PubChem BioAssay (Tox21)
# By UniProt entry, the sequences of proteins in these tests, tags left out. Where a name states a change or a piece, a line headed by the entry shows the natural chain unless it says otherwise.
# UniProt P28223, whole entry, looked up: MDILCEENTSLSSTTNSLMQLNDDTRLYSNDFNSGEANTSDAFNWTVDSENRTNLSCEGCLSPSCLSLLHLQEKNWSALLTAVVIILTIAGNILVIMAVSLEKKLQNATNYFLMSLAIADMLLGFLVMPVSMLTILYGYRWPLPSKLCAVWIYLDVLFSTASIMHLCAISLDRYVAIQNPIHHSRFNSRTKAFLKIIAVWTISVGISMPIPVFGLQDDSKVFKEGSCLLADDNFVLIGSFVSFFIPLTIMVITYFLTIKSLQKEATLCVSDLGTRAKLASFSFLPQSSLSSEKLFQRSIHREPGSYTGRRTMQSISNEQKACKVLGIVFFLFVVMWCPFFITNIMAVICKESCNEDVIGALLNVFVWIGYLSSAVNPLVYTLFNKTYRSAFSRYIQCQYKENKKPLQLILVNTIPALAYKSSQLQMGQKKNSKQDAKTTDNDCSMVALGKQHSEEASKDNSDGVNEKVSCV
# UniProt P14416, whole entry, looked up: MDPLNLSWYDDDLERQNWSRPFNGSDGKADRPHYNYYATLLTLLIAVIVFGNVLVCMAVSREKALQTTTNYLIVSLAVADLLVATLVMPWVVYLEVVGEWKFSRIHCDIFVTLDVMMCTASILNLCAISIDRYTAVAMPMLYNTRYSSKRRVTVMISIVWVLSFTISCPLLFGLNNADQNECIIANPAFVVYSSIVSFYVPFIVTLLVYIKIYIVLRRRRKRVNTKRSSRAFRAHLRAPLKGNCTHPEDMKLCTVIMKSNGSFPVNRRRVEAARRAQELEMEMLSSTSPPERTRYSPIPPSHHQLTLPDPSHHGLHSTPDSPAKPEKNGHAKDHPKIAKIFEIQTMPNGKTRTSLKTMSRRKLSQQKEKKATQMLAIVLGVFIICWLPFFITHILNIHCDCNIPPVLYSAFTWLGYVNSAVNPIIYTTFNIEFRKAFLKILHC
# UniProt P11229: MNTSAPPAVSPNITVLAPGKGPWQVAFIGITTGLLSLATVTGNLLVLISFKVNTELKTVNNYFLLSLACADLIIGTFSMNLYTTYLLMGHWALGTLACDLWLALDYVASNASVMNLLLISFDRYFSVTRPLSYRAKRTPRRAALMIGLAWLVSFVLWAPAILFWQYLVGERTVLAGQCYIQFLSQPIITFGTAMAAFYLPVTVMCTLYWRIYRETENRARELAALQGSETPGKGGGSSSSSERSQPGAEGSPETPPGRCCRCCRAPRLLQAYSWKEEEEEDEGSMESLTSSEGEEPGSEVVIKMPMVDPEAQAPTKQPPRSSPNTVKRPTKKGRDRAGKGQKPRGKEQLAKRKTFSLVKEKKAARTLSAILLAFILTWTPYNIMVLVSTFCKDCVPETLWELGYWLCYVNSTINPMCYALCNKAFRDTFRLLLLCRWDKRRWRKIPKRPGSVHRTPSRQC
# Where “and” joins values, the source holds several entries; their conditions need not be identical. Identical values can stand only once. Inconclusive means that the source gave no clear call. Such entries were picked first, then a sample of the others. For some assays here: A potency beside an inconclusive call is a rough fit, not a confirmed value. A structure can be active in one record and inactive in another. Calls of active or inactive are those of the source. Unless noted, calls come from the whole dose curve.
# How the values were obtained:
# [1] = Nuclear factor erythroid 2-related factor 2/antioxidant responsive element (Nrf2/ARE) small molecule agonists: luciferase reporter gene qHTS assay in human keratinocytes (AID 1919969); note: nearly all actives have a fitted effect of over 35% in size; note: potency is the fitted concentration of half-maximal effect
# [2] = p53 small molecule agonists, cell-based qHTS assay with human liver microsomes (AID 1963577); settings: HCT-116 p53RE-bla with human liver microsomes, ratio, 16 h; activation: at 66 µM (top of the series) unless noted; note: potency is the fitted concentration of half-maximal effect
# How it was run: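 Steps: plate p53RE-bla cells, incubate 5 h at 37 C; add compound in DMSO; add microsomes (0.5 mg/mL final) and NADPH (0.5 mg/mL final); incubate 16 h at 37 C; add LiveBLAzer, 2 h RT; read fluorescence.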
# [3] = p53 small molecule agonists, cell-based qHTS assay with rat liver microsomes (AID 1963578); settings: HCT-116 p53RE-bla, beta-lactamase ratio, 16 h; activation: at 66 µM (top of the series) unless noted; note: potency is the fitted concentration of half-maximal effect; for activation: % is set by controls: 0 for no effect and ±100 for the full control effect
# How it was run: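 Metabolic activation is supplied by rat liver microsomes with NADPH (each 0.5 mg/mL final). p53RE-bla cells incubate with compound 16 h at 37 C; reporter activity is measured by LiveBLAzer fluorescence.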
# [4] = p53 small molecule agonists, cell-based qHTS assay with rat liver microsomes: qHTS cell viability counter screen (AID 1963580); note: potency is the fitted concentration of half-maximal effect; nearly all actives have a fitted effect of over 45% in size
# How it was run: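 Luminescent ATP readout (CellTiter-Glo, 30 min at room temperature) reports viability of p53RE-bla HCT-116 cells after 16 h at 37 C with test compounds under metabolic activation by rat liver microsomes and NADPH at 0.5 mg/mL final each.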
# [5] = molecular target: Beta-2 adrenergic receptor (Homo sapiens) (UniProt P07550); experiment: Adrenergic beta2 receptor (ADRB2) small molecule agonists, cell-based qHTS assay (AID 1963593); settings: CHO-ADRB2 cells, cAMP HTRF, 30 min; note: potency is the fitted concentration of half-maximal effect;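 for activation: CHO cells stably overexpressing human ADRB2; % is set by controls: 0 for no effect and ±100 for the full control effect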
# How it was run: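 CHO cells stably over-expressing ADRB2 were plated overnight at 37C, then dosed with compounds plus a stimulation mix containing 100uM IBMX and 25uM Ro-20-1724 for 0.5hr at room temperature. cAMP was measured by HTRF competition, 1hr.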
# [6] = p53 small molecule agonists, cell-based qHTS assay (AID 1963582; active = well fitted activation curve with a large enough effect in the signal ratio in the repeat runs, not every such curve was filed as active; inconclusive = weak or mixed curves; the % refers to the signal ratio; note: potency is the fitted concentration of half-maximal effect); settings: HCT-116 p53RE-bla reporter, beta-lactamase FRET ratio, 16 h; activation: at 66 µM (top of the series) unless noted
# How it was run: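 Fluorescence intensity read-out of a beta-lactamase reporter under a p53 response element. Cells were exposed to DMSO-dissolved compounds for 16 h at 37 C, then developed with FRET substrate for 2 h at RT.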
# [7] = molecular target: 5-hydroxytryptamine receptor 2A (Homo sapiens) (UniProt P28223); experiment: 5-hydroxytryptamine receptor 2A (HTR2A) small molecule antagonists, cell-based qHTS assay (AID 1963586); note: nearly all actives have a fitted effect of over 45% in size; note: potency is the fitted concentration of half-maximal effect
# How it was run: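 CHO cells stably expressing human HTR2A were plated for 18 h at 37 C, then loaded with calcium dye for 1 h. Compounds were preincubated 5 min at room temperature before DOI (4 nM solution) was added. Kinetic fluorescence was read for 3 min.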
# [8] = molecular target: D(2) dopamine receptor (Homo sapiens) (UniProt P14416); experiment: Dopamine D2 receptor (DRD2) small molecule antagonists, cell-based qHTS assay (AID 1963595; active = well fitted inhibition curve with a large enough effect in the signal ratio in the repeat runs, with a control signal flat; inconclusive = weak or mixed curves, or effect the other way; the % refers to the signal ratio; note: potency is the fitted concentration of half-maximal effect; for activity change, negative = inhibition: % is set by controls: 0 for no effect and ±100 for the full control effect); settings: HEK293-DRD2 cAMP HTRF antagonist mode; activity change, negative = inhibition: at 92.4 µM (top of the series) unless noted
# How it was run: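 HEK293 cells stably expressing DRD2 were preincubated with 0.1 mM Ro20-1724, then with compound for 10 min at room temperature. Cells were stimulated with 200 nM NKH477 plus 12 nM quinpirole for 30 min, and cAMP was read by HTRF.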
# [9] = molecular target: 5-hydroxytryptamine receptor 2A (Homo sapiens) (UniProt P28223); experiment: 5-hydroxytryptamine receptor 2A (HTR2A) small molecule agonists, cell-based qHTS assay (AID 1963587); settings: HTR2A-CHO cells, calcium flux fluorescence, agonist mode; activation: at 76.8 µM (top of the series); note: % is set by controls: 0 for no effect and ±100 for the full control effect; nearly all actives have a fitted effect of over 30% in size
# How it was run: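 HTR2A-CHO cells, plated 18 h at 37 C/5% CO2, dye-loaded 1 h at 37 C; compounds in DMSO added by pin tool (agonist mode). Intracellular calcium flux read as kinetic fluorescence on FDSS over 2 min at 1 s intervals.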
# [10] = cAMP Responsive Elements (CRE) small molecule agonists, cell-based qHTS assay (AID 1963590); settings: CRE-bla HEK293T, beta-lactamase FRET ratio, 3 h; activation: at 92.4 µM (top of the series) unless noted; note: potency is the fitted concentration of half-maximal effect
# How it was run: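 Beta-lactamase reporter readout: LiveBLAzer B/G FRET substrate, 2 h at room temperature, added after 3 h compound treatment of CRE-bla HEK 293T cells at 37 C/5% CO2.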
# [11] = cAMP Responsive Elements (CRE) small molecule antagonists, cell-based qHTS assay (AID 1963591; active = well fitted inhibition curve with a large enough effect in the signal ratio in the repeat runs, not every such curve was filed as active; inconclusive = weak or mixed curves, or effect the other way; the % refers to the signal ratio; note: potency is the fitted concentration of half-maximal effect); settings: CRE-bla HEK293T, beta-lactamase FRET ratio; activity change, negative = inhibition: at 92.4 µM (top of the series) unless noted
# How it was run: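 HEK293T CRE-bla; 18 h preincubation; compound pin-transfer; NKH477 0.25 uM final, 3 h, 37 C; LiveBLAzer FRET substrate 2 h RT.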
# [12] = p53 small molecule agonists, cell-based qHTS assay with human liver microsomes: qHTS cell viability counter screen (AID 1963579); note: potency is the fitted concentration of half-maximal effect; nearly all actives have a fitted effect of over 45% in size
# How it was run: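 After the 460/530 nm beta-lactamase read, CellTiter-Glo was added to the same wells and luminescence measured after 30 min at room temperature, giving viability of p53RE-bla cells treated 16 h with compounds plus microsomes and NADPH.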
# [13] = p53 small molecule agonists, cell-based qHTS assay: qHTS cell viability counter screen (AID 1963581); note: potency is the fitted concentration of half-maximal effect; nearly all actives have a fitted effect of over 45% in size
# How it was run: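 Cytotoxicity read-out: ATP-based luminescence (CellTiter-Glo, 30 min RT) measured in the same wells as the p53 reporter assay, HCT-116 p53RE-bla cells, 16 h compound exposure at 37 C.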
# [14] = molecular target: Muscarinic acetylcholine receptor M1 (Homo sapiens) (UniProt P11229); experiment: Cholinergic receptor muscarinic 1 (CHRM1) small molecule antagonists, cell-based qHTS assay (AID 1963588); note: nearly all actives have a fitted effect of over 40% in size; note: potency is the fitted concentration of half-maximal effect
# How it was run: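 Compounds were tested at 15 concentrations in three independent runs. Dye-loaded CHRM1-CHO cells were exposed 5 min at room temperature before stimulation by acetylcholine added at 50nM. Intracellular calcium was read kinetically on FDSS for 3 min.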
# [15] = molecular target: Muscarinic acetylcholine receptor M1 (Homo sapiens) (UniProt P11229); experiment: Cholinergic receptor muscarinic 1 (CHRM1) small molecule agonists, cell-based qHTS assay (AID 1963589); settings: CHRM1-CHO cells, agonist mode, calcium flux fluorescence; activation: at 76.8 µM (top of the series); note: potency is the fitted concentration of half-maximal effect; nearly all actives have a fitted effect of over 35% in size
# How it was run: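 Calcium flux read-out: kinetic fluorescence at 1 sec intervals after pin-tool compound addition to dye-loaded CHRM1-CHO cells (human M1). Agonist mode; 15 concentrations tested in triplicate independent runs.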
# [16] = molecular target: Beta-2 adrenergic receptor (Homo sapiens) (UniProt P07550); experiment: Adrenergic beta2 receptor (ADRB2) small molecule antagonists, cell-based qHTS assay (AID 1963592); settings: CHO-ADRB2 cells, isoproterenol-stimulated cAMP HTRF ratio, 0.5 h; activity change, negative = inhibition: at 92.4 µM (top of the series) unless noted; note: nearly all actives have a fitted effect of over 50% in size; note: potency is the fitted concentration of half-maximal effect; for activity change, negative = inhibition: % is set by controls: 0 for no effect and ±100 for the full control effect
# How it was run: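 Assay format: CHO-ADRB2 cells, 18-20hr seeding at 37C/5% CO2, then compound plus 1nM isoproterenol agonist mix for 0.5hr RT. Homogeneous time-resolved fluorescence cAMP detection after 1hr, expressed as 665/615 nm ratio.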
# [17] = molecular target: D(2) dopamine receptor (Homo sapiens) (UniProt P14416); experiment: Dopamine D2 receptor (DRD2) small molecule agonists, cell-based qHTS assay (AID 1963594); settings: HEK293-DRD2 cAMP HTRF, agonist mode, 30 min; activation: at 92.4 µM (top of the series) unless noted; note: % is set by controls: 0 for no effect and ±100 for the full control effect; nearly all actives have a fitted effect of over 35% in size
# How it was run: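 HEK293 cells stably expressing DRD2 were cultured 24 h at 37 C, then given Ro20-1724 (0.1 mM final) and compounds for 10 min at room temperature. NKH477 (200nM) was then added for 30 min. cAMP was read by HTRF.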
# [18] = activation: at 92.4 µM (top of the series) unless noted
smiles,measurement,setting,value
CNC(=O)Oc1cccc2c1OC(C)(C)O2,Potency,[1],"inconclusive: 68.6 µM [activator, single point]"
same,Potency,[2],"inconclusive: 1.62 µM [fluorescent, full curve]"
same,Potency,[3],"inconclusive: 7.25 µM [fluorescent, partial curve]"
same,activation,[3],inconclusive: 16%
same,Potency,[4],"inconclusive: 18.9 µM [cytotoxic, single point]"
same,Potency,[5]; [18],inactive
COP(=S)(OC)Oc1ccc(S(=O)(=O)N(C)C)cc1,Potency,[1],"inconclusive: 68.6 µM [activator, single point]"
same,Potency,[2],active: 1.29 µM and inconclusive: 251 nM [fluorescent]
same,Potency,[3],"inconclusive: 1.15 µM [fluorescent, full curve] and inconclusive: 890 nM [fluorescent, full curve]"
same,Potency,[6],"inconclusive: 51.3 µM [falling, partial curve, poor fit]"
same,Potency,[7],"inconclusive: 0.0163 µM [inhibitor, partial curve, poor fit]"
same,Potency,[5]; [18],"inconclusive: 24.3 µM [activator, single point]"
same,Potency,[8],inactive
CCCSC(=O)N(CCC)CCC,Potency,[1],inactive
same,Potency,[3],inactive
same,Potency,[7],"inconclusive: 42.1 µM [inhibitor, partial curve, poor fit]"
CNC(=O)O/N=C/C(C)(C)S(C)(=O)=O,Potency,[1],"inconclusive: 68.5 µM [activator, single point]"
same,Potency,[3],"inconclusive: 9.17 µM [fluorescent, full curve] and inconclusive: 2.57 µM [fluorescent, full curve]"
same,Potency,[9],inactive
same,activation,[5]; [18],inconclusive: -2.55%
COc1ccc(/C(=C/C(=O)N2CCOCC2)c2ccc(Cl)cc2)cc1OC,Potency,[1],"inconclusive: 68.6 µM [activator, partial curve, poor fit]"
same,Potency,[2],"inconclusive: 36.3 µM [rising, partial curve]"
same,Potency,[7],"inconclusive: 37.5 µM [inhibitor, single point]"
same,Potency,[10],"inconclusive: 15.4 µM [activator, full curve]"
same,Potency,[11],"inconclusive: 0.864 µM [activator, full curve, poor fit]"
O=[N+]([O-])c1cc([N+](=O)[O-])c2ccccc2c1,Potency,[1],active: 17.2 µM
same,Potency,[12],"inconclusive: 45.8 µM [cytotoxic, partial curve, poor fit]"
same,Potency,[4],"inconclusive: 1.82 µM [cytotoxic, single point]"
same,Potency,[13],"inconclusive: 40.8 µM [rising, partial curve]"
same,Potency,[7],"inconclusive: 0.0027 µM [inhibitor, full curve, poor fit]"
same,Potency,[14],"inconclusive: 0.472 µM [inhibitor, full curve]"
same,Potency,[15],"inconclusive: 1.95 µM [rising, single point]"
same,Potency,[10],"inconclusive: 24.3 µM [rising, partial curve]"
same,Potency,[11],inconclusive: 29.5 µM [activator]
same,activation,[5]; [18],inconclusive: 1.51%
same,Potency,[8],"inconclusive: 38.6 µM [inhibitor, partial curve, poor fit]"
CCN(CC)C(=S)S,Potency,[1],"inconclusive: 6.08 µM [activator, single point] and inconclusive: 6.11 µM [activator, single point]"
same,Potency,[12],"inconclusive: 45.5 µM [cytotoxic, partial curve, poor fit]"
same,Potency,[4],"inconclusive: 36.1 nM [cytotoxic, single point] and inconclusive: 18.2 µM [cytotoxic, full curve]"
same,Potency,[5]; [18],inconclusive: 15.5 µM [inhibitor] and inactive
same,Potency,[8],inactive
C=CC(=O)OCC(CC)(COC(=O)C=C)COC(=O)C=C,Potency,[1],active: 2.8 µM and active: 6.11 µM
same,Potency,[3],"inconclusive: 59.2 µM [activator, partial curve, poor fit]"
same,Potency,[4],"inconclusive: 52.7 µM [cytotoxic, single point] and inconclusive: 20.4 µM [cytotoxic, single point]"
same,Potency,[13],"active: 26.4 µM and inconclusive: 22.9 µM [cytotoxic, partial curve, poor fit]"
same,Potency,[7],inactive
same,"activity change, negative = inhibition",[16],inconclusive: 29.3% and inconclusive: 25.6%
same,Potency,[5]; [18],"inconclusive: 31.5 µM [activator] and inconclusive: 19.3 µM [activator, full curve]"
same,Potency,[8],active: 48.6 µM
Nc1ccc(Cl)cc1,Potency,[1],"inconclusive: 35 µM [activator, partial curve, poor fit]"
same,Potency,[3],"inconclusive: 37 µM [rising, partial curve, poor fit]"
same,Potency,[12],"inconclusive: 2.08 µM [rising, partial curve, poor fit]"
same,Potency,[4],"inconclusive: 0.185 µM [cytotoxic, single point]"
same,Potency,[13],inconclusive: 19.6 µM
same,Potency,[14],inactive
same,"activity change, negative = inhibition",[11],inconclusive: 1.09%
same,Potency,[16],"inconclusive: 6.22 µM [falling, full curve, poor fit]"
same,Potency,[5]; [18],"inconclusive: 4.86 µM [inhibitor, full curve, poor fit]"
same,activation,[5]; [18],inconclusive: -55.6%
same,activation,[5]; at 92.4 µM (top of the series),inactive: 9.28%
same,activation,[17],inconclusive: -0.312%
same,"activity change, negative = inhibition",[8],inconclusive: -5.97%
CCOP(=S)(OCC)SCSc1cc(Cl)ccc1Cl,Potency,[1],inactive
same,Potency,[3],inactive
same,activation,[5]; [18],inconclusive: -3.92%
